Data: patent US5804553A, “Prophenins - antibiotic peptides” (University of California, priority 1994, dated 1998)
Not every detail of the peptide structures is certain; ends, links or a residue may be inferred. Where no end group is shown, it is not given here.

Test system: lipid polysaccharide (LPS) of the Gram-negative bacterium E. coli strain 0.55B5
Experiment: Limulus amebocyte lysate (LAL) test for endotoxin binding
Type: biochemical
Set-up: key to LAL gel formation: ++ signifies a solid gel (no inhibition); + indicates increased viscosity without solid gel formation (partial inhibition); 0 indicates that gelation was absent (complete inhibition)
Conditions: for LAL gel formation: Table 4; for effective concentration in inhibiting LPS: taking into account the molecular masses of the Fractions
Description: The prophenins of the invention were tested for their ability to bind the lipid polysaccharide (LPS) of the Gram-negative bacterium E. coli strain 0.55B5. The assay was the Limulus amebocyte lysate (LAL) test for endotoxins conducted in the presence and absence of the test compounds. The test was conducted using the procedure described in Sigma Technical Bulletin No. 210 as revised in December 1992 and published by Sigma Chemical Company, St. Louis, Mo.
The LAL test is based on the ability of LPS to effect gelation in the commercial reagent E-TOXATE ™ which is prepared from the lysate of circulating amebocytes of the Horseshoe Crab Limulus polyphemus. As described in the technical bulletin, when exposed to minute quantities of LPS, the lysate increases in opacity as well as viscosity and may gel or clot depending on the concentration of endotoxin. The technical bulletin goes on to speculate that the mechanism appears analogous to the clotting of mammalian blood and involves the steps of activation of a trypsin-like preclotting enzymes by the LPS in the presence of calcium ion, followed by enzymic modifications of a "coagulogen" by proteolysis to produce a clottable protein. These steps are believed tied to the biologically active or "pyrogenic" portion of the molecule. It has been shown previously that detoxified LPS (or endotoxin) gives a negative LAL test.
Polymyxin B is a cyclic 1.2 kD acylated […] obtained from Bacillus polymyxa. Polymyxin B was used as a positive control since it is known to inhibit LPS-induced Limulus hemocyte lysate clotting.
In the assay, the amounts of prophenin-1 and polymyxin B (78% free polymyxin, Sigma) were preincubated in a final volume of 0.2 ml and the test mixtures contained LPS at a final concentration of 0.05 endotoxin unit/ml and E-TOXATE™ at the same concentration. The test compounds were incubated together with the LPS for 15 minutes before the E-TOXATE™ was added to a final volume (after E-TOXATE™ addition) of 0.2 ml. The tubes were then incubated for 60 minutes at 37° C. and examined for the formation of a gel.

Row | Sequence | LAL gel formation (fragment 1.25 μg/ml) | LAL gel formation (fragment 2.5 μg/ml) | LAL gel formation (fragment 5.0 μg/ml) | LAL gel formation (fragment 10.0 μg/ml) | LAL gel formation (fragment .16 μg/ml) | LAL gel formation (fragment .31 μg/ml) | LAL gel formation (fragment .625 μg/ml) | effective concentration in inhibiting LPS
1 | FPPPNFPGPPFPPPIFPGPWFPPPPPFRPPPFGPPR [Fraction 3] | + | + | + | 0 | ++ | ++ | ++ | 2 to 4 µM
2 | FPPPNFPGPR [Fraction 2] | + | + | 0 | 0 | ++ | ++ | ++ | 2 to 4 µM
